PubChem BioAssay AID1224830, NIAID, 2016
Aim: 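Genes whose knock-down alters the TNF-alpha reporter response to LPS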 (primary screen). System: human THP-1 monocytic leukaemia cells, TNF dual-luciferase reporter clone, PMA-differentiated to macrophage-like cells. Reagents: siRNA pool against human genes, 50 nM. Timing: LPS for 4 h, given about 3 days after siRNA transfection. Conditions: bacterial LPS (TLR4 ligand), 10 ng/ml. Detection: 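Ratio of firefly to renilla light, scaled to the plate median and expressed as a robust z-score per replicate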. Scale: TNF reporter robust z-score: higher = stronger TNF reporter response to LPS. Hit rule: 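Each well counts as active if its z-score is over 2.8 or under -1.5; controls are left without a call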.
Here is an unselected part of about 18,000 deposited reagents. In the full data, about 2,900 (16%) were called active. 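Calls are made per well; low scores hint the gene aids the LPS response, high scores that it dampens it.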 The numbers tell different reagents against one gene apart. Repeated entries: four replicate wells of each siRNA pool.

| target | reagent | TNF reporter robust z-score | outcome |
| --- | --- | --- | --- |
| DCDC1 | 1 | 0.95 | inactive |
| DCDC1 | 1 | 1.74 | inactive |
| DCDC1 | 1 | 2.29 | inactive |
| DCDC1 | 1 | 0.9 | inactive |
| DCDC1 | 2 | -0.8 | inactive |
| DCDC1 | 2 | 0.29 | inactive |
| DCDC1 | 2 | -0.51 | inactive |
| DCDC1 | 2 | -1.04 | inactive |
| DTX2 | 1 | -0.81 | inactive |
| DTX2 | 1 | 1.35 | inactive |
| DTX2 | 1 | 0.19 | inactive |
| DTX2 | 1 | -0.83 | inactive |
| CACNB1 | 1 | -0.38 | inactive |
| CACNB1 | 1 | 1.83 | inactive |
| CACNB1 | 1 | 0.26 | inactive |
| CACNB1 | 1 | 0.84 | inactive |
| IL5RA | 1 | 2.57 | inactive |
| IL5RA | 1 | 2.73 | inactive |
| IL5RA | 1 | 2.24 | inactive |
| IL5RA | 1 | 1.52 | inactive |
| FREM1 | 1 | -0.13 | inactive |
| FREM1 | 1 | 0.68 | inactive |
| FREM1 | 1 | 0.86 | inactive |
| FREM1 | 1 | 1.32 | inactive |
| CSMD3 | 1 | -0.01 | inactive |
| CSMD3 | 1 | -0.09 | inactive |
| CSMD3 | 1 | 0.28 | inactive |
| CSMD3 | 1 | 0.17 | inactive |
| EIF4E2 | 1 | -0.28 | inactive |
| EIF4E2 | 1 | -0.25 | inactive |
| EIF4E2 | 1 | -1.06 | inactive |
| EIF4E2 | 1 | -0.62 | inactive |
| ITPR2 | 1 | 0.26 | inactive |
| ITPR2 | 1 | 2.77 | inactive |
| ITPR2 | 1 | 2 | inactive |
| ITPR2 | 1 | 3.61 | active |
| MDH1 | 1 | -1.17 | inactive |
| MDH1 | 1 | -0.55 | inactive |
| MDH1 | 1 | -0.68 | inactive |
| MDH1 | 1 | -0.56 | inactive |
| TNFAIP1 | 1 | -0.12 | inactive |
| TNFAIP1 | 1 | 0.45 | inactive |
| TNFAIP1 | 1 | -0.09 | inactive |
| TNFAIP1 | 1 | -0.18 | inactive |
| CHCHD1 | 1 | -0.69 | inactive |
| CHCHD1 | 1 | 1.15 | inactive |
| CHCHD1 | 1 | 1.29 | inactive |
| CHCHD1 | 1 | 0.36 | inactive |
| CACNA1D | 1 | -0.46 | inactive |
| CACNA1D | 1 | 0.28 | inactive |
| CACNA1D | 1 | 1.17 | inactive |
| CACNA1D | 1 | -0.24 | inactive |
| OR13H1 | 1 | 0.09 | inactive |
| OR13H1 | 1 | 0.92 | inactive |
| OR13H1 | 1 | -0.29 | inactive |
| OR13H1 | 1 | -0.88 | inactive |
| GDPD3 | 1 | 0.1 | inactive |
| GDPD3 | 1 | 0.89 | inactive |
| GDPD3 | 1 | 0.67 | inactive |
| GDPD3 | 1 | 1.3 | inactive |
| CENPA | 1 | 2.03 | inactive |
| CENPA | 1 | 1.92 | inactive |
| CENPA | 1 | 0.44 | inactive |
| CENPA | 1 | -0.58 | inactive |
| CXCL3 | 1 | -0.66 | inactive |
| CXCL3 | 1 | -0.12 | inactive |
| CXCL3 | 1 | 0.38 | inactive |
| CXCL3 | 1 | 0.32 | inactive |
| ACACA | 1 | 0.28 | inactive |
| ACACA | 1 | 0.37 | inactive |
| ACACA | 1 | -0.37 | inactive |
| ACACA | 1 | 0.91 | inactive |
| POLB | 1 | -1.03 | inactive |
| POLB | 1 | -0.64 | inactive |
| POLB | 1 | -0.71 | inactive |
| SLC9B1 | 1 | 0.6 | inactive |
| SLC9B1 | 1 | 0.45 | inactive |
| SLC9B1 | 1 | -0.05 | inactive |
| SLC9B1 | 1 | 0.63 | inactive |
| GPR158 | 1 | -0.95 | inactive |
| GPR158 | 1 | -0.02 | inactive |
| GPR158 | 1 | -0.26 | inactive |
| GPR158 | 1 | -0.29 | inactive |
| REP15 | 1 | -0.58 | inactive |
| REP15 | 1 | -0.09 | inactive |
| REP15 | 1 | -0.48 | inactive |
| REP15 | 1 | -0.25 | inactive |
| ATP6V0E1 | 1 | -2.02 | active |
| ATP6V0E1 | 1 | -1.52 | active |
| ATP6V0E1 | 1 | -1.88 | active |
| ATP6V0E1 | 1 | -1.5 | inactive |
| UBAP1 | 1 | -0.04 | inactive |
| UBAP1 | 1 | 0.18 | inactive |
| UBAP1 | 1 | -0.83 | inactive |
| UBAP1 | 1 | -0.7 | inactive |
| POLE3 | 1 | -0.09 | inactive |
| POLE3 | 1 | 0.29 | inactive |
| POLE3 | 1 | 0.2 | inactive |
| POLE3 | 1 | 0.32 | inactive |
| KHDC1 | 1 | 0.71 | inactive |
| KHDC1 | 1 | 1.27 | inactive |
| KHDC1 | 1 | 0.25 | inactive |
| KHDC1 | 1 | 1.18 | inactive |
| LRRC57 | 1 | -0.45 | inactive |
| LRRC57 | 1 | -0.75 | inactive |
| LRRC57 | 1 | -0.85 | inactive |
| LRRC57 | 1 | -0.42 | inactive |
| ENTPD4 | 1 | -1.25 | inactive |
| ENTPD4 | 1 | -1.14 | inactive |
| ENTPD4 | 1 | -1.88 | active |
| ENTPD4 | 1 | -1.4 | inactive |

In a second layout: entries from further up.
{"target": "DTX2", "reagent": 1, "TNF reporter robust z-score": -0.83, "outcome": "inactive"}
{"target": "CACNB1", "reagent": 1, "TNF reporter robust z-score": -0.38, "outcome": "inactive"}
{"target": "CACNB1", "reagent": 1, "TNF reporter robust z-score": 1.83, "outcome": "inactive"}
{"target": "CACNB1", "reagent": 1, "TNF reporter robust z-score": 0.26, "outcome": "inactive"}
{"target": "CACNB1", "reagent": 1, "TNF reporter robust z-score": 0.84, "outcome": "inactive"}
{"target": "IL5RA", "reagent": 1, "TNF reporter robust z-score": 2.57, "outcome": "inactive"}
{"target": "IL5RA", "reagent": 1, "TNF reporter robust z-score": 2.73, "outcome": "inactive"}
{"target": "IL5RA", "reagent": 1, "TNF reporter robust z-score": 2.24, "outcome": "inactive"}
